The target of test [1] is ABCA1-GFP (ATP-binding cassette transporter A1 fused to GFP) (UniProt O95477). In words: co-IP; GFP-Trap agarose on RIPA lysates of HeLa (ABCA1-GFP) or HeLa (negative) cells, overnight at 4°C; western blotting. Background: In western blotting, separated proteins are transferred to a membrane and probed.
In test [2] the target is ABCA1 (endogenous, immortalized mouse astrocytes) (mouse (endogenous in immortalized astrocytes)) (UniProt P41233). In words: co-IP; anti-ABCA1 antibody or species-matched IgG with Dynabeads Protein G on RIPA lysates of immortalized astrocytes, overnight at 4°C; western blotting.

Amino acid sequences for entries named in this document (tags omitted).
UniProt O95477: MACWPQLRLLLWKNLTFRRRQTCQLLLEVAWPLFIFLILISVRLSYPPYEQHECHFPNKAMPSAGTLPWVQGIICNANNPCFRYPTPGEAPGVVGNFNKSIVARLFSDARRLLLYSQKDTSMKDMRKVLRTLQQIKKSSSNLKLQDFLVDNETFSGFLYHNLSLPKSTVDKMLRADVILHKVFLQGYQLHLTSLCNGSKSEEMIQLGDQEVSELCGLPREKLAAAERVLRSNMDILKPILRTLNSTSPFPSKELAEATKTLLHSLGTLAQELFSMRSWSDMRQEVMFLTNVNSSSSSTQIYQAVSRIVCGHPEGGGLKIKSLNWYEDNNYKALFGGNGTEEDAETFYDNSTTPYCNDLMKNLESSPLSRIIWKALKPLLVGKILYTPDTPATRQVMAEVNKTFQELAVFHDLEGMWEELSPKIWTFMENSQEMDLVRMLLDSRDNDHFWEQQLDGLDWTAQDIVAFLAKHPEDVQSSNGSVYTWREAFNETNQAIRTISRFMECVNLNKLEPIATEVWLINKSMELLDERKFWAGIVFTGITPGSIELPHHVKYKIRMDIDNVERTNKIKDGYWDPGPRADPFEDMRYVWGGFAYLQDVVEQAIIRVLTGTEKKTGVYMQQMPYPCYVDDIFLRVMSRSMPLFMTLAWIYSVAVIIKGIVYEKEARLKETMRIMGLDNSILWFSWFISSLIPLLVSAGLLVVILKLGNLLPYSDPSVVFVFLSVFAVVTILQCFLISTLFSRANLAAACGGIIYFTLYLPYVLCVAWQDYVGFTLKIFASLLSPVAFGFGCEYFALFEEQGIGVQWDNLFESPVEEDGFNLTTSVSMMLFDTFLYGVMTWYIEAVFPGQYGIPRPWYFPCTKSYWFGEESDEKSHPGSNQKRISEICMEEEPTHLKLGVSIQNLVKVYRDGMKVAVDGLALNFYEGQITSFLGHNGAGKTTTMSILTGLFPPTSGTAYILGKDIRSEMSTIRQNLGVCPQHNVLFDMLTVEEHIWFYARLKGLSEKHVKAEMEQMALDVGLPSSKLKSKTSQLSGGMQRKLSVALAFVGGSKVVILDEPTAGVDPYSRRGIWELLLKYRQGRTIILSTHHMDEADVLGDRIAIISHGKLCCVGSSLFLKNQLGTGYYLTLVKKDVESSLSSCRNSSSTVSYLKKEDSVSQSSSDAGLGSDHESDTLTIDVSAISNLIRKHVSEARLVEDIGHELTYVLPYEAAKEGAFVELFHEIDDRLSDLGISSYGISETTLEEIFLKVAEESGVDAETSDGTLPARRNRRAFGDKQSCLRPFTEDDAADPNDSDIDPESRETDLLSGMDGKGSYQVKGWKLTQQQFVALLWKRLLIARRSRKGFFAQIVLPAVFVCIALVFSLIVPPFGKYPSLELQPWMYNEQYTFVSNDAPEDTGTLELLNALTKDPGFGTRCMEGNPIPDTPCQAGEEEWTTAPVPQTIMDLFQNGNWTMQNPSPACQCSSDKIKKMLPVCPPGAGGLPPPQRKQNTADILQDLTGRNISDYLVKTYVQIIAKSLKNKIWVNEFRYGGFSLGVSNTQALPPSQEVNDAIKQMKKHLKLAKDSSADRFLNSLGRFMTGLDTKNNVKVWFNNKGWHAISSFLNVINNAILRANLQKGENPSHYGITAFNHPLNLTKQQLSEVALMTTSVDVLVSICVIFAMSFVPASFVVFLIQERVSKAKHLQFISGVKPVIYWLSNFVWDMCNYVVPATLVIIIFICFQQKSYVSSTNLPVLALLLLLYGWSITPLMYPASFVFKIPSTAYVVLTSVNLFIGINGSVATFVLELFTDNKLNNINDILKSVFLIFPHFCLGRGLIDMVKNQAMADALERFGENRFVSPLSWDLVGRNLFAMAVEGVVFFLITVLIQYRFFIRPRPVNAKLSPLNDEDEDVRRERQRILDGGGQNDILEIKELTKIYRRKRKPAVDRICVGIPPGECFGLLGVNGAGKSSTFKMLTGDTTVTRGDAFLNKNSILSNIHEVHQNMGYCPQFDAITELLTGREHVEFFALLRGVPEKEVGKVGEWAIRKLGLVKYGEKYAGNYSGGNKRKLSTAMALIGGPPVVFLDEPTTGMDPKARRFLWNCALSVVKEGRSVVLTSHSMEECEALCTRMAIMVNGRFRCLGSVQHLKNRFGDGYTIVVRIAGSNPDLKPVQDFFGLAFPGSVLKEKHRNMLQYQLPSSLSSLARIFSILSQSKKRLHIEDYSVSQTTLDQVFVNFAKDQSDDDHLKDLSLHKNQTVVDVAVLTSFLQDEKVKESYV
UniProt P41233: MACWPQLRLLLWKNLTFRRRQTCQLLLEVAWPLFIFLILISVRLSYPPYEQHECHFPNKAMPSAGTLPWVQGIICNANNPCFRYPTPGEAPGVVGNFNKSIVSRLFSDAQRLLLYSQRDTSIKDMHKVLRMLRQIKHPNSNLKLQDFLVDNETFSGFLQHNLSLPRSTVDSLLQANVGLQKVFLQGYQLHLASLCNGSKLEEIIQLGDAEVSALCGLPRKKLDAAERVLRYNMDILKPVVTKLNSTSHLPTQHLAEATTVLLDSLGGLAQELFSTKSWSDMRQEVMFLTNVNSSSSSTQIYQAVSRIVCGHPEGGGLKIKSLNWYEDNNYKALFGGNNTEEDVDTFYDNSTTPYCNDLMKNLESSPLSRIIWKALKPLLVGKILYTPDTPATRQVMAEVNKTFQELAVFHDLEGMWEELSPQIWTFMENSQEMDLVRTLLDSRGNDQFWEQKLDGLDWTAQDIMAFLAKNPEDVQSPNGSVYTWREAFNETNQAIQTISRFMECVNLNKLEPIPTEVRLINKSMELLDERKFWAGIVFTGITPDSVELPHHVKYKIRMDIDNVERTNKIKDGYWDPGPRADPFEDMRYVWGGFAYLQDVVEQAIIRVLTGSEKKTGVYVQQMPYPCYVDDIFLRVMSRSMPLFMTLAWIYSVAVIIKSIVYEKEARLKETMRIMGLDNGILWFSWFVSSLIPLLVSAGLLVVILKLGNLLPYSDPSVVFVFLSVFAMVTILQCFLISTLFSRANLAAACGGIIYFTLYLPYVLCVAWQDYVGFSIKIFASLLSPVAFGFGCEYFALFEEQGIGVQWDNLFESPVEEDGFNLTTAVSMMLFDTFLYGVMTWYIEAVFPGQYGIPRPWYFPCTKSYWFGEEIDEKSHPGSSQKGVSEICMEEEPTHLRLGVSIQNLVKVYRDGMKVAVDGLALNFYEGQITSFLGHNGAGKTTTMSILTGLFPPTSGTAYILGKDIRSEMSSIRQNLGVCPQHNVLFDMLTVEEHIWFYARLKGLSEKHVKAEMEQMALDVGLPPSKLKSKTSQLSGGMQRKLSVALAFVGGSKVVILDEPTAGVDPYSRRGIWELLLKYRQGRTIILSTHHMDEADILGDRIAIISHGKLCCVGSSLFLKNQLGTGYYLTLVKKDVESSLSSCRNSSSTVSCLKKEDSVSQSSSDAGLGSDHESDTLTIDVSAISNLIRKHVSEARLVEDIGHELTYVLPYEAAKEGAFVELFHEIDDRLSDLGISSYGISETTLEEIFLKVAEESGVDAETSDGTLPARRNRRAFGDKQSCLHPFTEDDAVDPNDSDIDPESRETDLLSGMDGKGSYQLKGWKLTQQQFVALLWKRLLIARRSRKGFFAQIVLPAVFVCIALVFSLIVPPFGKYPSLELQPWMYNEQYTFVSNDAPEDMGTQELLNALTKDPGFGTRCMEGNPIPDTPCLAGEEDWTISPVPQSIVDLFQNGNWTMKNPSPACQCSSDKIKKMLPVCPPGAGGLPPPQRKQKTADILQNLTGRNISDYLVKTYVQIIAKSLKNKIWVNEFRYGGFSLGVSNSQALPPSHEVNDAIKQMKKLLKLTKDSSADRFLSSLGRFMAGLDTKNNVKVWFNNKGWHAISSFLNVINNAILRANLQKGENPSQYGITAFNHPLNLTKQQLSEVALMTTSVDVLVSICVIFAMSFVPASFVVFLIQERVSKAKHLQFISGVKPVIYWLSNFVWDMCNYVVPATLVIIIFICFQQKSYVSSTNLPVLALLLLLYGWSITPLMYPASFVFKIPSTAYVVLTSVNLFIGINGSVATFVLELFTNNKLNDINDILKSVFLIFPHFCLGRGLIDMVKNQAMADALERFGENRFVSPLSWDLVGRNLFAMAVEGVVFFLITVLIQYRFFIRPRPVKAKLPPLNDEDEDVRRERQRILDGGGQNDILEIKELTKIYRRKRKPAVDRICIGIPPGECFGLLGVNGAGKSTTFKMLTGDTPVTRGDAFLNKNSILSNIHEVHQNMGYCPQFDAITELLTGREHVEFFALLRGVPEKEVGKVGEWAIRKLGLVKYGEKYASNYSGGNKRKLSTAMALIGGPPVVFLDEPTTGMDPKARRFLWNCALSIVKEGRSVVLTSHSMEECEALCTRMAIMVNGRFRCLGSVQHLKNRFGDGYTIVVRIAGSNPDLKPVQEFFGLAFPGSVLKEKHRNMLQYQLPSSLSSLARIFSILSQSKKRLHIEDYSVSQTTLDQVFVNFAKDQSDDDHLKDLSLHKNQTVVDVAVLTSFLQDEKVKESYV
UniProt P63010: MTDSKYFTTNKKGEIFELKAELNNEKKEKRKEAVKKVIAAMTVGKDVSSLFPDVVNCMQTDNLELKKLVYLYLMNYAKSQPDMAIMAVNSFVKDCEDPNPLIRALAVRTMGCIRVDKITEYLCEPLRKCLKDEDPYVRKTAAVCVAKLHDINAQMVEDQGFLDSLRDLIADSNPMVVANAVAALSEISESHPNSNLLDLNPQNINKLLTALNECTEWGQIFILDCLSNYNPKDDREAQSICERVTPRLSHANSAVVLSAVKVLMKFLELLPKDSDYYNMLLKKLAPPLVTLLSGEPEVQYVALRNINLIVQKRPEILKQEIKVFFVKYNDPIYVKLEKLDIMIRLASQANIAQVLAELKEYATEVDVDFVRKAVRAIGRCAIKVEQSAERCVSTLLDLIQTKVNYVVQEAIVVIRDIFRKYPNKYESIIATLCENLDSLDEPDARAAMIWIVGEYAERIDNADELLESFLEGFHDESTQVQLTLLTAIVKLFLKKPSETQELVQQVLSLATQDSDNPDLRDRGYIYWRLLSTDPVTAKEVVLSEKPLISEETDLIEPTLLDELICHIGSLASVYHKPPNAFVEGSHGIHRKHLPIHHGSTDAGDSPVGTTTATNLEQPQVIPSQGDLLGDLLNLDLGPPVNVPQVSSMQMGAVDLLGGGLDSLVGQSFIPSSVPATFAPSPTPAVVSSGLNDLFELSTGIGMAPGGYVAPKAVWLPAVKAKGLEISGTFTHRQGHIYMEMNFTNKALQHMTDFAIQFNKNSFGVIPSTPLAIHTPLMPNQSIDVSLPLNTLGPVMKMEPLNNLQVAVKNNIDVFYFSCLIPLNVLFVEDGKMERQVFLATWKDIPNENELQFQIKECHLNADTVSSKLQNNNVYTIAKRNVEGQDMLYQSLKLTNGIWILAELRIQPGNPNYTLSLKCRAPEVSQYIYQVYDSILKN

Results are given in words; binding and its absence hold for the method and conditions named. In cells and extracts the contact can be indirect. Some binding calls cover weakened binding; strength is not graded here.

For the molecule “adaptor-related protein complex 2 subunit beta 1 (from UniProt P63010 1-937)”, in test [1], the binding entry is “binds”.
On to caveolin-1 (from UniProt Q03135 1-178), for which the binding entry in test [1] is recorded as “binds”.

B1: caveolin-1 (endogenous, immortalized mouse astrocytes) (protein, UniProt P49817 1-178)
chain: MSGGKYVDSEGHLYTVPIREQGNIYKPNNKAMADEVTEKQVYDAHTKEIDLVNRDPKHLNDDVVKIDFEDVIAEPEGTHSFDGIWKASFTTFTVTKYWFYRLLSTIFGIPMALIWGIYFAILSFLHIWAVVPCIKSFLIEIQCISRVYSIYVHTFCDPLFEAIGKIFSNIRISTQKEI
Regarding B1, in test [2], the binding result was “binds”.

The record behind these values is publication PMC11118681.
